Experimental findings from paper PMC5833439 are described below.

This experiment addresses T1, decidual protein induced by progesterone (DEPP) (UniProt Q9NTK1).
T1 sequence: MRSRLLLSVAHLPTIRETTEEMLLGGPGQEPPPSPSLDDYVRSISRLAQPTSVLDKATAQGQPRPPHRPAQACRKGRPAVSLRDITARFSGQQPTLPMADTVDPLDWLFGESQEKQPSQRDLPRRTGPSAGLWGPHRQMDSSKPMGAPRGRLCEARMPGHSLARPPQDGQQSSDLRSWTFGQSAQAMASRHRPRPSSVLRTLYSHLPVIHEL
Nature of the experiment: co-IP; DEPP immunoprecipitated (anti-DEPP in the text; Flag-DEPP immunoprecipitates in the legend) from HCT116 cells with or without treatment with baicalin or siDEPP; immunoblot for Ras. A general note: In western blotting, separated proteins are transferred to a membrane and probed.

No constants are given. Whether binding was seen depends on the method and setting. In cells and extracts the contact can be indirect. A result given as binding can be weak or reduced; the word gives no strength.

For the substance Ras (human (endogenous in HCT116)), the binding result is on record as “binds”.
